Source: patent US20260382581A1, “COMPOSITIONS COMPRISING CYTISINE IN THE TREATMENT AND/OR PREVENTION OF ADDICTION IN SUBJECTS IN NEED THEREOF” (published 2026)
The source holds more than one record for some entries. This is not the full list of results. The source may hold further records. Values that stand side by side do not match, cause unknown; some may be repeats, others may stem from another dose, organism or construct than stated.

How the values were obtained:
adult smokers = experiment: ORCA-1: CO-confirmed quit rate at Week 4 and continuous abstinence Weeks 5-8; settings: 3.0 mg TID vs placebo; listed as cytisine
Procedure: This was a six-arm, multi-center, double-blind, randomized, placebo-controlled study conducted in male or female adults≥18 years of age, smoking 10+ cigarettes daily, and willing to set a quit date that is 5-7 days after randomization. This study was designed to evaluate the effectiveness of 1.5 mg of cytisine versus placebo using the commercial titration schedule approved in Central and Eastern Europe. The study also evaluated the effectiveness of a simplified TID dosing schedule for 1.5 mg and an increased dose of 3.0 mg (using both the commercial titration (COM) and simplified TID dosing schedules). The overall goal of the study was to obtain estimates of effect size for efficacy and safety endpoints that will be used to inform the design of future Phase 3 studies.
The secondary efficacy endpoint was the quit rate (confirmed by CO<10 ppm) and included an analysis at week 4 (i.e., the end of treatment) and sustained (4-week) abstinence from Week 5 to Week 8 (i.e., off treatment).
The primary outcome (Cigarette Score) and the main secondary abstinence outcomes were subjected to sensitivity analyses. The main secondary abstinence outcomes were the initial quit rate at Week 4 and continued 4-week abstinence through Week 5 to Week 8, confirmed by expired carbon monoxide (CO) of <10 ppm designated as Cess/W5-8/CO Success. […]

[1] = test system: adult users of nicotine e-cigarettes; experiment: claude (Example 3): vaping cessation from Week 9 to Week 12 (primary endpoint; odds ratios, relative risks, risk differences, exact tests); settings: vaping cessation Week 9 to 12, Table 61 (all, N = 160), vs placebo; listed as Cytisinicline
Procedure: This Example describes a Phase 2 ORCA-V1 trial evaluated 160 adult e-cigarette users at 5 clinical trial locations in the United States. The trial completed enrollment in approximately 4 months. ORCA-V1 participants were randomized to receive 3 mg cytisinicline three times daily or placebo for 12 weeks in combination with standard cessation behavioral support. The dose and administration of cytisinicline in the ORCA-V1 study is identical to that used in the Phase 3 registrational trials for smoking cessation.
To evaluate cytisinicline as an aid to vaping cessation in adult users of nicotine e-cigarettes who intend to quit, a multi-center, double-blind, randomized, placebo-controlled study was conducted. Subjects were randomized 2:1 (100 cytisinicline: 50 Placebo) with 160 total randomized (FIG. 56). Subjects were stratified on whether they have smoked>100 cigarettes in their lifetime (yes vs no) (FIG. 57). Study size will have 95% power to detect a ~19% reduction in cotinine levels from baseline. Odds ratio (95% confidence interval) will exclude one when cytisinicline abstinence success is >18%; Example, a 6% placebo rate versus 18% outcome or odds ratio of 3.44 will be significant. Missing data may be assumed as reported vaping. […]
Primary Marginal and Secondary Outcomes: the primary outcome analysis (not stratified) and the secondary outcomes are analyzed using Fisher's exact test. […]

## O=c1cccc2n1C[C@@H]1CNC[C@H]2C1
Adult smokers
  OR, abstinence Weeks 5 to 8: 5.04 (95% CI: 1.42, 22.32) and 5.04
  OR, quit rate at Week 4: 6.31 (95% CI: 2.28, 18.45) and 6.31
[1]
  Odds Ratio: 2.6199 and Odds Ratio = 2.6199
